Record: PubChem BioAssay AID652243 (Drosophila RNAi Screening Center, 2013)

Aim: 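Fly regulators of androgen-dependent reporter output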 (primary screen)
Cells: Drosophila S2R+ cells
Knock-down reagent: long dsRNA against Drosophila genes
Duration: 72 h (48 h, then 24 h hormone)
Challenge: synthetic androgen R1881 at 10 nM for 24 h
Detection: 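Firefly light from an androgen-responsive reporter and Renilla control light per well, raw and unnormalised, for each of two replicates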
Direction: firefly reporter light: higher = more light from androgen-responsive reporter; Renilla control light: higher = more constitutive control signal (cell number, transfection)
Call rule: 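Across duplicate plates, a knock-down whose log firefly/Renilla ratio shifted a set fold down or up from the GFP/LacZ control mean was a hit; the downward cut appears as both 1.5 and 3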
Meaning of the calls: active = hit: reporter lowered or raised; inactive = no hit
The screen tested about 24,000 reagents; below is a random part of those with a known target gene and a result. Of all reagents, 246 (1%) are marked active. 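Plates not normalised; calls are printed but the firefly/Renilla ratio behind them is not deposited; fold cut for lowering reported inconsistently.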 The raw values are shown without normalisation. A plus sign joins genes that one reagent is predicted to hit. Not given: the amount of reagent.

Gene	DRSC id	firefly reporter light, replicate 1	firefly reporter light, replicate 2	Renilla control light, replicate 1	Renilla control light, replicate 2	Call
CysRS	DRSC05948	3.30e5	4.68e5	2.33e6	3.08e6	inactive
CysRS	DRSC26620	2.29e5	1.82e5	5.14e5	5.18e5	inactive
Cnx99A + Cnx14D	DRSC16610	1.93e5	1.44e5	1.95e6	2.98e6	inactive
Gr22a	DRSC22283	6.82e5	7.18e5	2.49e6	1.85e6	inactive
Gr22a	DRSC26809	3.92e5	2.94e5	6.66e5	5.53e5	inactive
Sxl	DRSC18721	1.09e5	94679	8.92e5	6.12e5	inactive
Sxl	DRSC18722	2.90e5	2.97e5	2.18e6	2.77e6	inactive
Sxl	DRSC21490	1.23e6	8.84e5	2.03e6	1.57e6	inactive
Sxl	DRSC28896	3.01e5	3.75e5	8.49e5	1.05e6	inactive
CG18547	DRSC15345	1.32e5	1.52e5	2.19e6	1.97e6	inactive
Yip1d1	DRSC02166	3.31e5	2.74e5	2.11e6	2.17e6	inactive
CG15035	DRSC17967	2.04e5	3.28e5	1.64e6	3.37e6	inactive
AsnRS	DRSC01990	5.60e5	8.09e5	1.13e6	1.30e6	inactive
CG42750	DRSC03019	2.42e5	1.98e5	2.65e6	2.22e6	inactive
CG42750	DRSC03024	1.87e5	2.03e5	1.62e6	1.74e6	inactive
CG42750	DRSC21414	5.79e5	5.51e5	2.03e6	1.76e6	inactive
CG42750	DRSC23218	2.58e5	3.66e5	9.18e5	1.12e6	inactive
CG42750	DRSC28148	3.04e5	2.50e5	1.62e6	1.32e6	inactive
CG42750	DRSC28791	4.41e5	4.15e5	1.19e6	1.30e6	inactive
CG14419	DRSC17916	4.29e5	4.31e5	4.53e6	4.06e6	inactive
CG14419	DRSC27046	6.60e5	4.77e5	7.12e5	6.12e5	inactive
CG8281	DRSC10976	1.69e5	1.81e5	1.78e6	1.68e6	inactive
tub	DRSC12389	4.28e5	3.73e5	4.49e6	3.45e6	inactive
tub	DRSC22800	5.34e5	7.31e5	5.70e5	6.39e5	inactive
Atg6	DRSC15798	1.03e5	96318	4.79e5	6.37e5	inactive
Atg6	DRSC24442	6.09e5	6.34e5	8.26e5	1.01e6	inactive
CG6282	DRSC10616	8.57e5	6.81e5	8.07e5	9.95e5	inactive
CG6282	DRSC29524	2.43e5	2.55e5	7.66e5	7.66e5	inactive
SmydA-6	DRSC07341	80448	87372	1.19e6	1.19e6	inactive
Cndp2	DRSC04873	1.70e5	1.83e5	1.43e6	1.03e6	inactive
Trs31	DRSC05975	8.16e5	5.64e5	1.07e6	1.04e6	inactive
ens	DRSC08454	8.14e5	6.47e5	2.21e6	2.33e6	inactive
ens	DRSC25507	7.71e5	8.81e5	1.26e6	1.28e6	inactive
MAGE	DRSC12504	1.49e5	1.31e5	2.30e6	2.15e6	inactive
SmydA-5	DRSC04867	2.22e5	1.80e5	1.36e6	1.47e6	inactive
SmydA-5	DRSC27930	4.31e5	6.32e5	9.91e5	8.66e5	inactive
gkt + CR31953	DRSC00709	5.45e5	7.17e5	2.04e6	1.65e6	inactive
Rab23	DRSC12305	69101	1.07e5	1.39e6	1.02e6	inactive
Rab23	DRSC25339	4.54e5	4.31e5	5.04e5	5.08e5	inactive
CG10598	DRSC19358	6.85e5	4.99e5	3.43e6	3.38e6	inactive
CG10598	DRSC25200	7.80e5	8.78e5	1.12e6	1.29e6	inactive
RpLP0-like	DRSC06424	1.29e6	1.12e6	1.58e6	1.63e6	inactive
RpLP0-like	DRSC28206	8.21e5	9.31e5	1.68e6	1.81e6	inactive
Dim1	DRSC00563	1.17e5	98667	8.43e5	8.33e5	inactive
Gr97a	DRSC13802	63082	2.45e5	89704	3.45e5	inactive
Slmap	DRSC03799	1.15e5	1.11e5	1.09e6	1.03e6	inactive
repo	DRSC23108	3.53e5	4.20e5	1.06e6	1.15e6	inactive
repo	DRSC26970	6.37e5	6.21e5	1.22e6	7.54e5	inactive
CG42346	DRSC37923	6.05e5	5.12e5	1.83e6	1.62e6	inactive
CG42346	DRSC38786	7.85e5	7.62e5	1.81e6	1.94e6	inactive
Cpr65Ea	DRSC11027	2.19e5	1.20e5	2.56e6	1.97e6	inactive
Cpr65Ea	DRSC25692	7.02e5	7.58e5	1.06e6	1.13e6	inactive
disco	DRSC20323	5.23e5	4.99e5	4.60e6	3.34e6	inactive
disco	DRSC25113	5.26e5	3.99e5	4.02e5	3.64e5	inactive
CG5984	DRSC15930	2.08e5	2.61e5	1.94e6	3.18e6	inactive
CG7333	DRSC16229	3.71e5	4.43e5	3.24e6	3.73e6	inactive
COX7AL	DRSC15313	59538	78636	1.68e6	1.49e6	inactive
COX7AL	DRSC25198	9.03e5	9.01e5	5.33e5	8.81e5	inactive

Targets listed so far whose gene name begins with S or s (8):
Gene	DRSC id	firefly reporter light, replicate 1	firefly reporter light, replicate 2	Renilla control light, replicate 1	Renilla control light, replicate 2	Call
Sxl	DRSC18721	1.09e5	94679	8.92e5	6.12e5	inactive
Sxl	DRSC18722	2.90e5	2.97e5	2.18e6	2.77e6	inactive
Sxl	DRSC21490	1.23e6	8.84e5	2.03e6	1.57e6	inactive
Sxl	DRSC28896	3.01e5	3.75e5	8.49e5	1.05e6	inactive
SmydA-6	DRSC07341	80448	87372	1.19e6	1.19e6	inactive
SmydA-5	DRSC04867	2.22e5	1.80e5	1.36e6	1.47e6	inactive
SmydA-5	DRSC27930	4.31e5	6.32e5	9.91e5	8.66e5	inactive
Slmap	DRSC03799	1.15e5	1.11e5	1.09e6	1.03e6	inactive
